In paper PMC6562498:
These are yes or no findings as the source states them, for the method shown. Binding seen in cells or lysates may run through a third protein. Some results given as binding are weak or reduced against the parent protein; the word gives no strength. For part of these data: Where a sequence is shown, tags or fusion partners need not be part of it.

Protein sequences, listed by entry. Tags and fused reporters are not part of them.
UniProt P78527: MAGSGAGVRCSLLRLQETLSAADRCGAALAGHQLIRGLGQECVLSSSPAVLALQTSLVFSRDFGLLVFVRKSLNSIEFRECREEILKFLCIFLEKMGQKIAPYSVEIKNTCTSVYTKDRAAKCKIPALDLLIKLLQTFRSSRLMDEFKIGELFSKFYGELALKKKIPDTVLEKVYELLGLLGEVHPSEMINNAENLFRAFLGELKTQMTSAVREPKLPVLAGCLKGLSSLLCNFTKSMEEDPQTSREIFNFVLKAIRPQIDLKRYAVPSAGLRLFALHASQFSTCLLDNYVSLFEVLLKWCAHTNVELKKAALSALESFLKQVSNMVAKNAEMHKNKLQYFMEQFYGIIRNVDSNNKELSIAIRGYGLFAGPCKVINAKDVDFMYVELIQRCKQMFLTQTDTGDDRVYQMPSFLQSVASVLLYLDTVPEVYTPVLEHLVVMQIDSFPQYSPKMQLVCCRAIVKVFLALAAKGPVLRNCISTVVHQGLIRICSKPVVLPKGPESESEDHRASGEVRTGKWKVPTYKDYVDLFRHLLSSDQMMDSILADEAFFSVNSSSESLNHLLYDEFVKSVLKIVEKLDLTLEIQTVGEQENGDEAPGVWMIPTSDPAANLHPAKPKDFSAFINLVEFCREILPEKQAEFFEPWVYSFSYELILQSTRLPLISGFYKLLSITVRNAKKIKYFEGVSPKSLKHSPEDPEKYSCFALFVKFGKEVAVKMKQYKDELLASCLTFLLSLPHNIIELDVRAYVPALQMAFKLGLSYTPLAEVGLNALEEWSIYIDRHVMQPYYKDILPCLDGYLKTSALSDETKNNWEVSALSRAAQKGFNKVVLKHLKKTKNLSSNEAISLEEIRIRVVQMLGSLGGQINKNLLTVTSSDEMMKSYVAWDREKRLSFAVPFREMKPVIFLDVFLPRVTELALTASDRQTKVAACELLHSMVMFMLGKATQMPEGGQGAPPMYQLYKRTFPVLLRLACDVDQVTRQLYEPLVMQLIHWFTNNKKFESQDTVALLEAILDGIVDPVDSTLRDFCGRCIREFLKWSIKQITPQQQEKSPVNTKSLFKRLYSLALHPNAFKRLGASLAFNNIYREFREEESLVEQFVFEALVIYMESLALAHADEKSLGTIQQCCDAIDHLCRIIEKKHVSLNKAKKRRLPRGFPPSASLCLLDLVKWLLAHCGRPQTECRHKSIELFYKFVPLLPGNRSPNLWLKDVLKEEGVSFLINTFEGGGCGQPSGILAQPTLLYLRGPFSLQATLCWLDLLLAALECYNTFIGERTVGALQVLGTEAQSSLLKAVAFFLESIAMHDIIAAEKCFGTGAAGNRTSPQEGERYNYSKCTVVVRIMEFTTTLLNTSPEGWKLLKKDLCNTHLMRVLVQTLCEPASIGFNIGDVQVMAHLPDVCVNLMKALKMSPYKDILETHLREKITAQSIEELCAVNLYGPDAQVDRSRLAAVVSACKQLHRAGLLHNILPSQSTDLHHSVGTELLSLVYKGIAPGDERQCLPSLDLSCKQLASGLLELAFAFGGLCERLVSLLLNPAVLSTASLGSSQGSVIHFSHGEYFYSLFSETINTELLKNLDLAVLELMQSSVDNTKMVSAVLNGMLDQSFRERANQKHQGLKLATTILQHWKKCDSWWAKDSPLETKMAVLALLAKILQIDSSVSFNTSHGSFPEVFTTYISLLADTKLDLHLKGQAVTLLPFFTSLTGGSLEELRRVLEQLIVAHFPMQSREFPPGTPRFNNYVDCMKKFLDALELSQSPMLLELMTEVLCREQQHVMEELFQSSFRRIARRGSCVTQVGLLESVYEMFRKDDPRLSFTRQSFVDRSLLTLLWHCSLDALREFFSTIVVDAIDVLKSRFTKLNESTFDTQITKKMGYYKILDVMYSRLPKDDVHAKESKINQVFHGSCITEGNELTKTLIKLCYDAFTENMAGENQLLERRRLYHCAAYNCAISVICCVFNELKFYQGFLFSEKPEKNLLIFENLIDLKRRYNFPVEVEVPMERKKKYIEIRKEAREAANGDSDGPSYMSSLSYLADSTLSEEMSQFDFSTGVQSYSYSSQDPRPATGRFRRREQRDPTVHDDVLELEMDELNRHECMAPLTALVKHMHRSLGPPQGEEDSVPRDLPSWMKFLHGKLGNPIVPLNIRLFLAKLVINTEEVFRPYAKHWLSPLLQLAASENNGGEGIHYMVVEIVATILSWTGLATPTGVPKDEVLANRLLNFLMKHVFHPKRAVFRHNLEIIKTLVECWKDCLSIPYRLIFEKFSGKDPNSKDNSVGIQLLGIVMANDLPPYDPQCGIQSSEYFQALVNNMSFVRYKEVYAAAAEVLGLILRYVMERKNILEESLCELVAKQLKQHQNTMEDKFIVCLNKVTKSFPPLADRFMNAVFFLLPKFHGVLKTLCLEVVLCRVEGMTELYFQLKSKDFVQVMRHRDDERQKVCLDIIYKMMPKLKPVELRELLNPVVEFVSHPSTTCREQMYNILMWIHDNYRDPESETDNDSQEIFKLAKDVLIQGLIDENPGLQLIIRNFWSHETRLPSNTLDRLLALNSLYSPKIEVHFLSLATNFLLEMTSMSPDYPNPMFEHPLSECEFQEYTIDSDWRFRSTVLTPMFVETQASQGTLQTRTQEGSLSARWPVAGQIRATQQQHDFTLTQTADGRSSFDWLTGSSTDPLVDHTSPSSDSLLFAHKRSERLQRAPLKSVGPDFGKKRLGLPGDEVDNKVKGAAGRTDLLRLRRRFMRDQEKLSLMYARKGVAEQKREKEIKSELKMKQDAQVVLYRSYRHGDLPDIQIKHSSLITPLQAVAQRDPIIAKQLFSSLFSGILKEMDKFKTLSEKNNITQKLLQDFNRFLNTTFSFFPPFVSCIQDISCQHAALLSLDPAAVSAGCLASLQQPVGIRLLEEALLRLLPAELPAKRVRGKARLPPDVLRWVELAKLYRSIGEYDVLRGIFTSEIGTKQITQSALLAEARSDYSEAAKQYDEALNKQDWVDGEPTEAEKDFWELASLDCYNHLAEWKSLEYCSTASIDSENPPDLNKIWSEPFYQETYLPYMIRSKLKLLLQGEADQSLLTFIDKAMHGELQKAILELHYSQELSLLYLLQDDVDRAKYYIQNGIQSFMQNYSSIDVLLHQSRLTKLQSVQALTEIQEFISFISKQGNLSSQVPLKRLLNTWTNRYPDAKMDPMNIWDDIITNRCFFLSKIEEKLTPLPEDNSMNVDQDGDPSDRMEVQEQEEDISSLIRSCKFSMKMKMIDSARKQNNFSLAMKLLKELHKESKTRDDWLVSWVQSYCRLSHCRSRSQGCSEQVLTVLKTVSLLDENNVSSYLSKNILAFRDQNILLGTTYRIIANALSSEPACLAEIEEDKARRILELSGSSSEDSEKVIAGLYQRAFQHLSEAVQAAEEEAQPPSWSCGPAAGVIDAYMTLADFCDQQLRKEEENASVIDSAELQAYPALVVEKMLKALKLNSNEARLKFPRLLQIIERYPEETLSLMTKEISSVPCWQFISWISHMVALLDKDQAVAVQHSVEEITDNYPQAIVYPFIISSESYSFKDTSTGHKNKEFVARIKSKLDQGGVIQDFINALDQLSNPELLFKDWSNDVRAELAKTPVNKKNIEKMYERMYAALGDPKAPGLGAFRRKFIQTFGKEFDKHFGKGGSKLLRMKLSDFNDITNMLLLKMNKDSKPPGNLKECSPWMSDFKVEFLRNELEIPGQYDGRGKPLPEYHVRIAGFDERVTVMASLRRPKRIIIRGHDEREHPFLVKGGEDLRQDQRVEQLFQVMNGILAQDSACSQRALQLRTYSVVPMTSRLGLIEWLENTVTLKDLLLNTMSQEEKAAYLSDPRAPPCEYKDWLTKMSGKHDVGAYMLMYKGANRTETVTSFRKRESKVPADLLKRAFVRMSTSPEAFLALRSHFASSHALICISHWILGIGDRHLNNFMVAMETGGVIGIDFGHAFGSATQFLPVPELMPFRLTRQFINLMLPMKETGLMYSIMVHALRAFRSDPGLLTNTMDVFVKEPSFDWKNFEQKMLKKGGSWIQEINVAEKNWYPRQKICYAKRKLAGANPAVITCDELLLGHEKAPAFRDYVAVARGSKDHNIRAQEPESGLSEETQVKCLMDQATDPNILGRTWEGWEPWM
UniProt P09874: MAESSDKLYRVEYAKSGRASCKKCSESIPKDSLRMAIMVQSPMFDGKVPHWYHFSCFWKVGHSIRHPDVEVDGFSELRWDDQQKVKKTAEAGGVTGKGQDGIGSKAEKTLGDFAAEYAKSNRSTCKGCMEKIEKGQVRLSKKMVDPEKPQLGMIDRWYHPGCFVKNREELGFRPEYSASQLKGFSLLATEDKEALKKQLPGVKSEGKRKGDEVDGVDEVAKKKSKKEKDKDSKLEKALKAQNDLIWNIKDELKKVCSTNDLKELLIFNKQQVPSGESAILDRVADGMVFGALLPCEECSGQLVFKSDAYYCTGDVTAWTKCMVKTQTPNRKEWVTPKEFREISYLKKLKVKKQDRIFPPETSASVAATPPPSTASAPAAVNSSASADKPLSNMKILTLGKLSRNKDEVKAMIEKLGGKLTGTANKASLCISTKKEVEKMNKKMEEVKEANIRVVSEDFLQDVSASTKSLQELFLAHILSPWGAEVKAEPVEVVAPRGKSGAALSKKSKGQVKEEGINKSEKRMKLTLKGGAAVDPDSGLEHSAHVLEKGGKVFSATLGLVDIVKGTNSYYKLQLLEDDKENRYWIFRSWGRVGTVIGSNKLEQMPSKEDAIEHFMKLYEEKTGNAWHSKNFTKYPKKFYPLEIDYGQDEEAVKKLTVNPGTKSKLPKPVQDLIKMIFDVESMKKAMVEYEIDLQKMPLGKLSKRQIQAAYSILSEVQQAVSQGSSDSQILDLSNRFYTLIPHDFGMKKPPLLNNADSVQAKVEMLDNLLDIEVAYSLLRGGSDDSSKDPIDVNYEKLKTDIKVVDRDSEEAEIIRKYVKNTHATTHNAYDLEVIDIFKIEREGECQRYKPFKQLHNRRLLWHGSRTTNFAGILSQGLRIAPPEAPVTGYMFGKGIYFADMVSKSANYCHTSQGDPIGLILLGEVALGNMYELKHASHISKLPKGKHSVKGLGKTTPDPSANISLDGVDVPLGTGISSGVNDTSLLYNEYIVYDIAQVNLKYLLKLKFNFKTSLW
UniProt Q92878: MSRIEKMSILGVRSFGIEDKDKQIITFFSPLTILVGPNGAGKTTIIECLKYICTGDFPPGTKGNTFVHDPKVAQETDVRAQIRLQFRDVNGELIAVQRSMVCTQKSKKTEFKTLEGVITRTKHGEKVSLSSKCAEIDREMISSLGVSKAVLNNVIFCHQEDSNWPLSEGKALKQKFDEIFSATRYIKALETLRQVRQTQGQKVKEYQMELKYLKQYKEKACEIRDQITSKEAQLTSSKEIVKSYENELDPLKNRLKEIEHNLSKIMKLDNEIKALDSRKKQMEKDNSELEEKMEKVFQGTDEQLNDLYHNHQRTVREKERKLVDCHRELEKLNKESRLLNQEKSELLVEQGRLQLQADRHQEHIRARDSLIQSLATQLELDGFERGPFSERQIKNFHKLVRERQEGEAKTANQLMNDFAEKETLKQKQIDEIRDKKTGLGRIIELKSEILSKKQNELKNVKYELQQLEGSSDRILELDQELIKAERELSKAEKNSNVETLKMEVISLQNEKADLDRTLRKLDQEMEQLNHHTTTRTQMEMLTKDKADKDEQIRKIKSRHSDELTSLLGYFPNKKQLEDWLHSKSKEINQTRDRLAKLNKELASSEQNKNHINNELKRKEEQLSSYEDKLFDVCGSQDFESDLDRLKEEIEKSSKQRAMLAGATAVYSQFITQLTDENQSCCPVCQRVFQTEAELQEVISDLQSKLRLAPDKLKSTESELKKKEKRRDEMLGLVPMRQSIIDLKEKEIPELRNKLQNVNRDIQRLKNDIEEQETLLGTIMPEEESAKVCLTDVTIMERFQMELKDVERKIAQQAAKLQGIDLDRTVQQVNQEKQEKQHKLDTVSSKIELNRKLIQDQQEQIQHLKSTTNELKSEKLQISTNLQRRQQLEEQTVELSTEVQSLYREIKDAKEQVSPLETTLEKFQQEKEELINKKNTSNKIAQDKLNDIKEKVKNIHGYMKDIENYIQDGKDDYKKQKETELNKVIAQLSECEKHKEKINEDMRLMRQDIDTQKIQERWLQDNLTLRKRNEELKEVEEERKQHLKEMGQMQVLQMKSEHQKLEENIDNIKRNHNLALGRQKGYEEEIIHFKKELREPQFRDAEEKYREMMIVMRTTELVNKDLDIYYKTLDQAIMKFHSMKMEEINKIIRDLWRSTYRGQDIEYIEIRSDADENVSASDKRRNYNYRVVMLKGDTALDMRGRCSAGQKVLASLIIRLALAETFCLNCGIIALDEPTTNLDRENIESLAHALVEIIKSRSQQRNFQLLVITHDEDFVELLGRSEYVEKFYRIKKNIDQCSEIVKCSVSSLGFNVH

T1: P2-GFP ΔP-box mutant (human) (UniProt P41235)
T1 sequence: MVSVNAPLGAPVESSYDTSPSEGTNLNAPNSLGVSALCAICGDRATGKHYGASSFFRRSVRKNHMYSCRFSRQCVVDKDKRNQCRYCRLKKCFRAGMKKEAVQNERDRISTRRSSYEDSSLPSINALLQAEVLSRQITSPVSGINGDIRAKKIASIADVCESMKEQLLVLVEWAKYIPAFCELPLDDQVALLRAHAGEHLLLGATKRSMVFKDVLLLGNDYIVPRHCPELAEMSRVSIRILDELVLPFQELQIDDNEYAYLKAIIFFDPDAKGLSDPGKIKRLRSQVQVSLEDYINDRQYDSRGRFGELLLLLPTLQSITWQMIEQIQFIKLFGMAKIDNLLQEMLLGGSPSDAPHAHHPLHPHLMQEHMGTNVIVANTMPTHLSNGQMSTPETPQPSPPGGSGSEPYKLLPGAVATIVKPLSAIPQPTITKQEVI

T2: P2-GFP ΔA/T-box mutant (human) (UniProt P41235)
T2 sequence: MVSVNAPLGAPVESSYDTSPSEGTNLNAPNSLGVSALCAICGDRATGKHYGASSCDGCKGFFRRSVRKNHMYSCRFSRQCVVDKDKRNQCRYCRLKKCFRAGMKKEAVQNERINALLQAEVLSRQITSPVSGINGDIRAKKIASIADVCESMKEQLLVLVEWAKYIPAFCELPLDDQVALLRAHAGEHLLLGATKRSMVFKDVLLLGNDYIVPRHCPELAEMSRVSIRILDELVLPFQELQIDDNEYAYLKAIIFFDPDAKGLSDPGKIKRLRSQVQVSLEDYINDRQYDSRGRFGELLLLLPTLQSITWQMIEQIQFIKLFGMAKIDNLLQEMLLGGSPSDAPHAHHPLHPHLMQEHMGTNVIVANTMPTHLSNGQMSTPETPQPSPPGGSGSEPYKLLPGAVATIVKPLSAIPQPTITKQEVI

T3: P2-GFP GR P-box mutant (human) (UniProt P41235)
T3 sequence: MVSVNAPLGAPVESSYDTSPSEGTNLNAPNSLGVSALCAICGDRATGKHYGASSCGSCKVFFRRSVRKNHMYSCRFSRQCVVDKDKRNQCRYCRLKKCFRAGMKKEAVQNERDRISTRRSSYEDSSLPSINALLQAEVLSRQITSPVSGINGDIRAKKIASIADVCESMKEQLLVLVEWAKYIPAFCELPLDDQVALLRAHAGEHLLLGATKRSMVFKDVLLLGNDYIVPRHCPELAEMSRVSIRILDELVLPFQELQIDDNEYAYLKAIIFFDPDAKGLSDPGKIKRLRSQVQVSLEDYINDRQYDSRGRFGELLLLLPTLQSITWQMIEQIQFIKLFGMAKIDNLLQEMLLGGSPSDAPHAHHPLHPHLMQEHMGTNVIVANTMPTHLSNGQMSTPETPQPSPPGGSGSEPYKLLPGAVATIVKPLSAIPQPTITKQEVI

T4: P2-GFP ΔAF-2 mutant (human) (UniProt P41235)
T4 sequence: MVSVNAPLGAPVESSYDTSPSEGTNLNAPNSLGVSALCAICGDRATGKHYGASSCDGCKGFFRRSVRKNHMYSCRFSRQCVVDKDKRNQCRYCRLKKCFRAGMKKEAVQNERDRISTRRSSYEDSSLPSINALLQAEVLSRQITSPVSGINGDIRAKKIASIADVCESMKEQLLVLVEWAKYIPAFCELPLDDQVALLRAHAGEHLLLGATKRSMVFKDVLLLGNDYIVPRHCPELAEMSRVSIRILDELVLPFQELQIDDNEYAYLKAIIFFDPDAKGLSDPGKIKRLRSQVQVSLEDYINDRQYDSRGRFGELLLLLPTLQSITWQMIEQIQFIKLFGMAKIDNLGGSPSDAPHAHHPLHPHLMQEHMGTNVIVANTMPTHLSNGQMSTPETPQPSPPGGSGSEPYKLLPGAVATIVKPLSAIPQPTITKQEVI

T5: wild-type P2-GFP construct, transfected (human) (UniProt P41235)
T5 sequence: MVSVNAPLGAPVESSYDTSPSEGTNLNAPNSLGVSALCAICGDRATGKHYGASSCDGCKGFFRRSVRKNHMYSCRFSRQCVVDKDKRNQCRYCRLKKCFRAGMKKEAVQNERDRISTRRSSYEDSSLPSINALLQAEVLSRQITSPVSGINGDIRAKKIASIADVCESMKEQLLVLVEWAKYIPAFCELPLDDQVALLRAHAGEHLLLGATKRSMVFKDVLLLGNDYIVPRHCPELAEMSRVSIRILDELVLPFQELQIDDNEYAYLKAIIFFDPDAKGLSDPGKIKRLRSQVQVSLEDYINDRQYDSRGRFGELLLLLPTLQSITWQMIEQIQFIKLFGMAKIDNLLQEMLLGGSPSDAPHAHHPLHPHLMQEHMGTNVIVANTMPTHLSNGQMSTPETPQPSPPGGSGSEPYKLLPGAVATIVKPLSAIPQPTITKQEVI

T6: P2-GFP C93R mutant (human) (UniProt P41235)
T6 sequence: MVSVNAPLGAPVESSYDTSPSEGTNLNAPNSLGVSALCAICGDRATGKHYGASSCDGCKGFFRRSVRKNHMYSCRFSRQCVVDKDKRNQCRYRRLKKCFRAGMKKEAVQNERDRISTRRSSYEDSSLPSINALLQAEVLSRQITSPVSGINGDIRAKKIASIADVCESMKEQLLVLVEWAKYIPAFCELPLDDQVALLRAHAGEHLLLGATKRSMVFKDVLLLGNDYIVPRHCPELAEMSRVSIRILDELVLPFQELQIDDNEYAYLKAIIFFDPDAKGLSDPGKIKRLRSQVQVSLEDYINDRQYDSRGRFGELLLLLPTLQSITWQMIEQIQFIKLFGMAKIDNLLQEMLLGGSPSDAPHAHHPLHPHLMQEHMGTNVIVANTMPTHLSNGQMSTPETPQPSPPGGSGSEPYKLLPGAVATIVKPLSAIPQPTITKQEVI

T7: endogenous HNF4α (human (endogenous in HT-29 and LoVo)) (UniProt P41235)
T7 sequence: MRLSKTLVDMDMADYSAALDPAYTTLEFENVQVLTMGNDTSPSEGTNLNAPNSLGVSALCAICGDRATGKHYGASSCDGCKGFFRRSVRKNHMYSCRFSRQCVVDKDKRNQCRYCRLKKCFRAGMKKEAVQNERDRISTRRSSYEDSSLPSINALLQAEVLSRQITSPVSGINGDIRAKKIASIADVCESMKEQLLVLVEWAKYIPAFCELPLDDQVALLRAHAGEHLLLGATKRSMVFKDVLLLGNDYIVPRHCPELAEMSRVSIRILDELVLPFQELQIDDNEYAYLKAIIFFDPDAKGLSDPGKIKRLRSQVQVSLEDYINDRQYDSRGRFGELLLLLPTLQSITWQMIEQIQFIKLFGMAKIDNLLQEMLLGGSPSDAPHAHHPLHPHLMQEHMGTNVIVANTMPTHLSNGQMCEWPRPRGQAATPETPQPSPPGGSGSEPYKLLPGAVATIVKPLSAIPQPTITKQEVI


Key:
[1] = biological target: T1, P2-GFP ΔP-box mutant (human); test: co-IP; HCT116 cells transfected with wild-type or mutant P2-GFP constructs, total extracts 48 h later, GFP-Trap beads overnight, six washes in Triton buffer, Western blot; protein-A sepharose beads as control
[2] = biological target: T2, P2-GFP ΔA/T-box mutant (human); test: as above
[3] = biological target: T3, P2-GFP GR P-box mutant (human); test: as above
[4] = biological target: T4, P2-GFP ΔAF-2 mutant (human); test: as above
[5] = biological target: T5, wild-type P2-GFP construct, transfected (human); test: as above
[6] = biological target: T6, P2-GFP C93R mutant (human); test: as above
[7] = biological target: T7, endogenous HNF4α (human (endogenous in HT-29 and LoVo)); test: co-IP; endogenous proteins, total extracts of HT-29 and LoVo cells (Triton buffer, sonicated), overnight with anti-HNF4α (sc-6556) or anti-DNA-PKcs (MA5-13404), Protein G beads, Western blot; beads alone as control
[8] = biological target: DNA-PKcs, the catalytic subunit of a nuclear DNA-dependent kinase (human (endogenous in HEK293T, HT-29, LoVo, HCT116)) (UniProt P78527); test: as above

Molecule	binding [1]	binding [2]	binding [3]	binding [4]	binding [5]	binding [6]	binding [7]	binding [8]
DNA-PKcs, the catalytic subunit of a nuclear DNA-dependent kinase (from UniProt P78527 1-4128)	binds	binds	binds	binds	binds	binds	–	–
endogenous HNF4α (protein, UniProt P41235 1-474) MRLSKTLVDMDMADYSAALDPAYTTLEFENVQVLTMGNDTSPSEGTNLNAPNSLGVSALCAICGDRATGKHYGASSCDGCKGFFRRSVRKNHMYSCRFSRQCVVDKDKRNQCRYCRLKKCFRAGMKKEAVQNERDRISTRRSSYEDSSLPSINALLQAEVLSRQITSPVSGINGDIRAKKIASIADVCESMKEQLLVLVEWAKYIPAFCELPLDDQVALLRAHAGEHLLLGATKRSMVFKDVLLLGNDYIVPRHCPELAEMSRVSIRILDELVLPFQELQIDDNEYAYLKAIIFFDPDAKGLSDPGKIKRLRSQVQVSLEDYINDRQYDSRGRFGELLLLLPTLQSITWQMIEQIQFIKLFGMAKIDNLLQEMLLGGSPSDAPHAHHPLHPHLMQEHMGTNVIVANTMPTHLSNGQMCEWPRPRGQAATPETPQPSPPGGSGSEPYKLLPGAVATIVKPLSAIPQPTITKQEVI	–	–	–	–	–	–	–	binds

Next, values leading:

binding [1]	binding [2]	binding [3]	binding [4]	binding [5]	binding [6]	binding [7]	binding [8]	Molecule
binds	binds	binds	binds	binds	binds	binds	–	PARP-1 (from UniProt P09874 1-1014)
binds	binds	binds	binds	binds	binds	binds	–	RAD50 (from UniProt Q92878 1-1312)
